The target of the data set is p-hydroxyphenylpyruvate dioxygenase (HPPD), endogenous (Arabidopsis thaliana) (UniProt P93836). Briefly: pull-down. The note with it: endogenous HPPD from extract, identified by mass spectrometry (second hit after RubisCo); protein in an extract; label: 5' biotin (biotinylated ApG starter); variant of S116D-C8.

Chains of the proteins cited; added tags and fusions are not shown. Lines headed by an entry give the natural chain unless they say otherwise; changes in a name come on top.
UniProt P93836: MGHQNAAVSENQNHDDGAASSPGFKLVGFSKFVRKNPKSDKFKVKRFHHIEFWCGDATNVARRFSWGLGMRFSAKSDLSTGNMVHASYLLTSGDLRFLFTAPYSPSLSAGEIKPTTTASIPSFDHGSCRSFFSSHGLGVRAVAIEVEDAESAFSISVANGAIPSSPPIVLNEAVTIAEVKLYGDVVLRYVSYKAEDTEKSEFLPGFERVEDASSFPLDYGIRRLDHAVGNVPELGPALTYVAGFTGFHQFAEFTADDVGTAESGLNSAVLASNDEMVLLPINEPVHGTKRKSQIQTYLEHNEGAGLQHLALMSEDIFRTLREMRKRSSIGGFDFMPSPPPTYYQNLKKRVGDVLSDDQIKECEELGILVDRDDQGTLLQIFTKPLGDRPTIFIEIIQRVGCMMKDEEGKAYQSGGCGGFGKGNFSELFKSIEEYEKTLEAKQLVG

Construct, isoform or probe ends are uncertain for at least one entry. Where cells or extracts were used, other partners may take part.

As to “GGGAGAGGAGGGAGAUAGAUAUCAAUAAAGUCGGUGACACCACGCAUCCAAAUACCGGUACGCGGAACUAAUAGUUUGUCCUCACGGUGGAUGG [S116D-C8 biotinylated]”, the binding result was “binds”.

For the origin of these results see US20100248978.
